This is one part of the list. Hit calls seldom repeat between salt and free forms of one compound.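 In K562 cells expressing nanoluciferase-fused kinases, luminescence was recorded at 4 h intervals between 2 and 18 h, normalized as percent of control with DMSO at 100% and a positive control at 0%. A significant (2 sigma) signal drop marks a time point as decreased. The authors' rule for a hit is not shown and takes in more than the number of time points.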
Experiments:
Details in all cases: K562; 2-18 h
RET = RET (UniProt P07949); assay: kinase-Nluc reporter destabilization hit call (1 = scored as downregulated) (binary); higher = compound decreases kinase abundance
[1] = target: RET_M918T (clone: RET_mut) (UniProt P07949); assay: as above
RIOK1 = RIOK1 (UniProt Q9BRS2); assay: as above
RIPK1 = RIPK1 (UniProt Q13546); assay: as above
RIPK2 = RIPK2 (UniProt O43353); assay: as above
ROR2 = ROR2 (UniProt Q01974); assay: as above
RPS6KA1 = RPS6KA1 (UniProt Q15418); assay: as above
SPHK1 = SPHK1 (UniProt Q9NYA1); assay: as above
SRC = SRC (UniProt P12931); assay: as above
STK24 = STK24 (UniProt Q9Y6E0); assay: as above
STK38 = STK38 (UniProt Q15208); assay: as above
SYK = SYK (UniProt P43405); assay: as above
TEC = TEC (UniProt P42680); assay: as above
TYK2 = TYK2 (UniProt P29597); assay: as above
ULK3 = ULK3 (UniProt Q6PHR2); assay: as above
YES1 = YES1 (UniProt P07947); assay: as above
ZAK = ZAK (UniProt Q9NYL2); assay: as above
ZAP70 = ZAP70 (UniProt P43403); assay: as above
ABL1 = ABL1 (UniProt P00519); assay: number of time points (of 5) at which kinase-Nluc abundance scored as decreased, DMSO-normalised (count); higher = more persistent destabilization
AKT1 = AKT1 (UniProt P31749); assay: as above

Sequences of proteins named here, by UniProt entry; tags and fusion partners are left off. A change or cut given only in a name is not applied to a line headed by its entry.
UniProt P07949, whole entry, looked up: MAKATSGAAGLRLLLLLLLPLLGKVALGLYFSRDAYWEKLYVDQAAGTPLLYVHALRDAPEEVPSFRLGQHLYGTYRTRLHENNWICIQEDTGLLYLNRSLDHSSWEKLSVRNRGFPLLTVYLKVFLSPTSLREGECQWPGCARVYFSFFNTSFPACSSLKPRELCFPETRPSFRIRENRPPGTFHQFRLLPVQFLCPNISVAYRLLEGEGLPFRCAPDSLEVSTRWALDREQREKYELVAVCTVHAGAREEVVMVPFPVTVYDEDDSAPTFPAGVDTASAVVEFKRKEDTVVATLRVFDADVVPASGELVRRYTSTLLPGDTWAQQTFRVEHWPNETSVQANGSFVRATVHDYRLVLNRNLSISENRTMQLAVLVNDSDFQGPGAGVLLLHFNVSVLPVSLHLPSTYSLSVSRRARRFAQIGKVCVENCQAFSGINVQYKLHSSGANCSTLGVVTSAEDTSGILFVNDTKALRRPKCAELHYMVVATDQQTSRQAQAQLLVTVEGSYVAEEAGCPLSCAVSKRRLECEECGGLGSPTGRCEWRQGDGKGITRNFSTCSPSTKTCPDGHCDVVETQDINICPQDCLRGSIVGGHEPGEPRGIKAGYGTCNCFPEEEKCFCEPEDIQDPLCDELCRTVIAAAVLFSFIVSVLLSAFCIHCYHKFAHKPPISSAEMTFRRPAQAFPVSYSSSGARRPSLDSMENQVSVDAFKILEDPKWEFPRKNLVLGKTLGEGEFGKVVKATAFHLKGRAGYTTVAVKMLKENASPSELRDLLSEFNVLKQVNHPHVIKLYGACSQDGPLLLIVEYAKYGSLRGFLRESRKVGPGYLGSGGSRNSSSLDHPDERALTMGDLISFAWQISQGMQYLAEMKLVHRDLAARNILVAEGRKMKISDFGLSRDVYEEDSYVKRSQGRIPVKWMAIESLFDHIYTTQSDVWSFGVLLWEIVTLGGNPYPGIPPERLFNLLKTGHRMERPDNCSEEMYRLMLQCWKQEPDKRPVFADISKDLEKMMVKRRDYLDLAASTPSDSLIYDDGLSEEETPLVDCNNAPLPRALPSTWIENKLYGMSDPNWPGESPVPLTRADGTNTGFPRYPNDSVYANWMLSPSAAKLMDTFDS
UniProt Q9BRS2: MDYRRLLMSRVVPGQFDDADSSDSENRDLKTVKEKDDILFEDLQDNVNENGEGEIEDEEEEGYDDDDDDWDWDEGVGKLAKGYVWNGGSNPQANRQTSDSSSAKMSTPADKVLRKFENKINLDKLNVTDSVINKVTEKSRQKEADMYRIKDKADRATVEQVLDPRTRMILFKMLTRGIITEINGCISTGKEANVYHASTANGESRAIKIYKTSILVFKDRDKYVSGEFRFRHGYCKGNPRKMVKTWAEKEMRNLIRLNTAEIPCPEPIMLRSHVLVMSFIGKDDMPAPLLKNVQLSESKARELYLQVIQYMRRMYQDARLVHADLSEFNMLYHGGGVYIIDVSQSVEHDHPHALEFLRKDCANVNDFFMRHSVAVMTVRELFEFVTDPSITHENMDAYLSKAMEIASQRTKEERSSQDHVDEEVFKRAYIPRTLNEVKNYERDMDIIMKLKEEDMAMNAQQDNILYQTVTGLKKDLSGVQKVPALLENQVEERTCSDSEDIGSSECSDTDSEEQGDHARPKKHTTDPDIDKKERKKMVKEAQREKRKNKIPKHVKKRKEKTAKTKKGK
UniProt Q15418, whole entry: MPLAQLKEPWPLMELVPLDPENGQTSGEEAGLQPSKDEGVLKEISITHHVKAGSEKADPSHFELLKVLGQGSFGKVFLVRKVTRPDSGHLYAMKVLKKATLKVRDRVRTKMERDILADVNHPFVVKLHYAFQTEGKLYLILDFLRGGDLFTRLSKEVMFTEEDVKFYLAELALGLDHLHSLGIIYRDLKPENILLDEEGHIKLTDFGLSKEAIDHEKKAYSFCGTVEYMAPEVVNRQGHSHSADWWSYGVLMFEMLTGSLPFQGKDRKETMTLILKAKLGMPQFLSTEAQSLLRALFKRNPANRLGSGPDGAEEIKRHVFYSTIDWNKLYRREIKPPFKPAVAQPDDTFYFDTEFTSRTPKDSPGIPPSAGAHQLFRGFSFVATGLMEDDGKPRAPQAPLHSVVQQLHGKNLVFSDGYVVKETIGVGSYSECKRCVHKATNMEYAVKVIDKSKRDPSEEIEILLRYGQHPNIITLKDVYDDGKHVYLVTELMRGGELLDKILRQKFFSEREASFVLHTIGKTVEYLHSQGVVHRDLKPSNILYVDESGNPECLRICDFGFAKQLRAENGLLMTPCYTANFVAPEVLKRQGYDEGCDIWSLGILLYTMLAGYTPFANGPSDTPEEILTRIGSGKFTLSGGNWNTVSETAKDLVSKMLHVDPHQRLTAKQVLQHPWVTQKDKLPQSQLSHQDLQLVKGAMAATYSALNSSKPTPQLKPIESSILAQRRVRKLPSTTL
UniProt P42680: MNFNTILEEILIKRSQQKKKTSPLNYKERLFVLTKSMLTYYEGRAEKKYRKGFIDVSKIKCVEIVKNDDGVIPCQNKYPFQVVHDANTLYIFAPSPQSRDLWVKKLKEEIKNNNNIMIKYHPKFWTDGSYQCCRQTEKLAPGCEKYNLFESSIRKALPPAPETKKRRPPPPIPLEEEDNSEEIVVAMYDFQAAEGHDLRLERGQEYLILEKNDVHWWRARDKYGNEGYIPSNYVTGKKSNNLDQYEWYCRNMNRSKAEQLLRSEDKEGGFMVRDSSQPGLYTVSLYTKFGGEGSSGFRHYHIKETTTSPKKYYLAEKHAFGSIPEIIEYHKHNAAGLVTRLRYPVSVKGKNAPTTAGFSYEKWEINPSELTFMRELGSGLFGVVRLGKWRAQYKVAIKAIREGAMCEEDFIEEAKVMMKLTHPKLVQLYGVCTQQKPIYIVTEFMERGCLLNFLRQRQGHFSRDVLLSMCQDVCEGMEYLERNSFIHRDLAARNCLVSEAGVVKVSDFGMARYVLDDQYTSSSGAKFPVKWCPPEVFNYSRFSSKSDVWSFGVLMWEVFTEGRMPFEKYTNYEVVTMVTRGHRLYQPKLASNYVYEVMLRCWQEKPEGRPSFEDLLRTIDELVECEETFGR
UniProt P29597: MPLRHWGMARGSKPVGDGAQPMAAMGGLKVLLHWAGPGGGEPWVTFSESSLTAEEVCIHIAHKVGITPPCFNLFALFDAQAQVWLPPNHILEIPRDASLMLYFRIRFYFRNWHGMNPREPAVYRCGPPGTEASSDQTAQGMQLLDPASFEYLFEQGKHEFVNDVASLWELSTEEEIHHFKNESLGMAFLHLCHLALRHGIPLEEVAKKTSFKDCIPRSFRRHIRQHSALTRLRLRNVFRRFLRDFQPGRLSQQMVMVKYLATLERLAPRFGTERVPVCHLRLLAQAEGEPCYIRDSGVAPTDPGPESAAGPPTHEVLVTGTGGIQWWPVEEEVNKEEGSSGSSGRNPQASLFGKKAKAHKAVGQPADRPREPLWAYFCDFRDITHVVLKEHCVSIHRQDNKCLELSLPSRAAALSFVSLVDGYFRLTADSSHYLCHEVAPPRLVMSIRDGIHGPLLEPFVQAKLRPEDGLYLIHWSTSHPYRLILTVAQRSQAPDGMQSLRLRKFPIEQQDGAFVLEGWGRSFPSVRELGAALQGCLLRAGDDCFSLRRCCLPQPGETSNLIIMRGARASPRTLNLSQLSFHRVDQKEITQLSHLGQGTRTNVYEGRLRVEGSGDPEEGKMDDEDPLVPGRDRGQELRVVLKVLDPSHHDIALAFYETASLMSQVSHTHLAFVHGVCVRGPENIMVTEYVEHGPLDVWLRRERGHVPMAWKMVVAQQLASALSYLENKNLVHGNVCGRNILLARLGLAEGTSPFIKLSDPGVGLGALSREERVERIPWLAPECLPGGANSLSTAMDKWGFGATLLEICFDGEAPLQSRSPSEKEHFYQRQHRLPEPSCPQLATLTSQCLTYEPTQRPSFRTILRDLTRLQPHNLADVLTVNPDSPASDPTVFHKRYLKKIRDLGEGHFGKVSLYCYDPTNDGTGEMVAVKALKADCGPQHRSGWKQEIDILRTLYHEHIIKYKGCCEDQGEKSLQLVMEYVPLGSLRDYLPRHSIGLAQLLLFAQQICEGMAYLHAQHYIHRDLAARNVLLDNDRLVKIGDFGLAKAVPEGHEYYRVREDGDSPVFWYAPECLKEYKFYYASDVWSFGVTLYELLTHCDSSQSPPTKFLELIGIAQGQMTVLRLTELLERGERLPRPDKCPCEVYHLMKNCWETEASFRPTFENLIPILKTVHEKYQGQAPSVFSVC
UniProt P07947, whole entry, looked up: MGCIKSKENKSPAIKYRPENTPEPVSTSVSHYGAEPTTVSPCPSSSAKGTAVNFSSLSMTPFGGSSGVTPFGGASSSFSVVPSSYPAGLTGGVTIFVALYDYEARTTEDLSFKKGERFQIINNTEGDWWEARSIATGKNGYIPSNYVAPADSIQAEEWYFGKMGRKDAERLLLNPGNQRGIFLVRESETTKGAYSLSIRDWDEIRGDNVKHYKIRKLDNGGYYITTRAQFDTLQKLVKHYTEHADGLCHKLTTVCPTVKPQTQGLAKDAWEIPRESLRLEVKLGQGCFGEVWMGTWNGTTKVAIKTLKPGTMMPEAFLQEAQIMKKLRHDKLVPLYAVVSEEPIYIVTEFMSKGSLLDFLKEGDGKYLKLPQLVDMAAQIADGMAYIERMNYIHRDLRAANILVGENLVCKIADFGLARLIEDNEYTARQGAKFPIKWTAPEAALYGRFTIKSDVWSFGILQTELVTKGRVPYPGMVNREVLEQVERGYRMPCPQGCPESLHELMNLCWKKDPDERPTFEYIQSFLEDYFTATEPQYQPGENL
UniProt P43403: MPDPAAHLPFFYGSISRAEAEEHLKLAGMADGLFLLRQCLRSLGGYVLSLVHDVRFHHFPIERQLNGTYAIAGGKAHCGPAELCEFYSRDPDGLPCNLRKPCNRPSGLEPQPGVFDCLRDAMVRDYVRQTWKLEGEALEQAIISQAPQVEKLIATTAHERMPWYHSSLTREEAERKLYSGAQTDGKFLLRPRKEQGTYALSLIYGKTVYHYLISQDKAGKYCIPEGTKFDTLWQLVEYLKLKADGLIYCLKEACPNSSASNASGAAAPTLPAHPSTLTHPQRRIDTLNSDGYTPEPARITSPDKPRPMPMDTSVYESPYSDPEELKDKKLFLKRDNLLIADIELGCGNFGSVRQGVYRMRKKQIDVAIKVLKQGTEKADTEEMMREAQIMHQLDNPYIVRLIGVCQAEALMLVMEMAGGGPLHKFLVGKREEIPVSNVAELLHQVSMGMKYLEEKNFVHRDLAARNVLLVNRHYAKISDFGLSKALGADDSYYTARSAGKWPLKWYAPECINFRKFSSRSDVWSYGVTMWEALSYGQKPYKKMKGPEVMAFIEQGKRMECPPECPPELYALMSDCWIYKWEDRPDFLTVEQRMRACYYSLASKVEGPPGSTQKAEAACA
UniProt P00519, whole entry: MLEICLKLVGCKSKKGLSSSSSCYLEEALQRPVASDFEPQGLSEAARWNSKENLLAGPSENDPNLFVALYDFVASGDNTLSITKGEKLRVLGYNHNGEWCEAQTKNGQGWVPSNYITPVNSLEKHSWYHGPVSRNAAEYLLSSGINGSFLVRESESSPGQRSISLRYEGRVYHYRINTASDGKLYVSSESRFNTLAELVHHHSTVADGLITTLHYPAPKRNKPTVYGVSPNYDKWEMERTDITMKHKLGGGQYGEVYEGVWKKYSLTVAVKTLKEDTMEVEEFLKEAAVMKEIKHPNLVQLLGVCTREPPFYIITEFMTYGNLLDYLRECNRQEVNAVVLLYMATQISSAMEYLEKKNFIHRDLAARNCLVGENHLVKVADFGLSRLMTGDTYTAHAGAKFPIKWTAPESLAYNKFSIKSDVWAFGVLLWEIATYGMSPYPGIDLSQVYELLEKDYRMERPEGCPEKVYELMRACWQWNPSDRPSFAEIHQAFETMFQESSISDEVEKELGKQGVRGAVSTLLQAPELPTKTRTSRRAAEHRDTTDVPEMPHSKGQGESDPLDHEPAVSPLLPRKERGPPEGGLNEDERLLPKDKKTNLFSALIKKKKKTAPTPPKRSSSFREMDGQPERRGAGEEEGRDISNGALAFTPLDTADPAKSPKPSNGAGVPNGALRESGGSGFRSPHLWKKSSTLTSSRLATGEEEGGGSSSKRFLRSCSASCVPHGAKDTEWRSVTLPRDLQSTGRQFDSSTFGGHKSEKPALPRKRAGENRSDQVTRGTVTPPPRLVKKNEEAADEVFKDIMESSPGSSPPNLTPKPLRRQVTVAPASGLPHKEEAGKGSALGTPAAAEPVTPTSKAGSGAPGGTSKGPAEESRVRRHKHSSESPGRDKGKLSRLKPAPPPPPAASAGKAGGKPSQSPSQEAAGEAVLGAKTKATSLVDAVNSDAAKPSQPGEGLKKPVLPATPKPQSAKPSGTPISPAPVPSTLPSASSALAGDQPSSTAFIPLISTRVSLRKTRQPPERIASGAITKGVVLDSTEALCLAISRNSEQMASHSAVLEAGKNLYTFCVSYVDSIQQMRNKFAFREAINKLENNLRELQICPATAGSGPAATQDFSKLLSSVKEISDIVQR

SMILES	kinase-Nluc reporter destabilization hit call (RET)	kinase-Nluc reporter destabilization hit call [1]	kinase-Nluc reporter destabilization hit call (RIOK1)	kinase-Nluc reporter destabilization hit call (RIPK1)	kinase-Nluc reporter destabilization hit call (RIPK2)	kinase-Nluc reporter destabilization hit call (ROR2)	kinase-Nluc reporter destabilization hit call (RPS6KA1)	kinase-Nluc reporter destabilization hit call (SPHK1)	kinase-Nluc reporter destabilization hit call (SRC)	kinase-Nluc reporter destabilization hit call (STK24)	kinase-Nluc reporter destabilization hit call (STK38)	kinase-Nluc reporter destabilization hit call (SYK)	kinase-Nluc reporter destabilization hit call (TEC)	kinase-Nluc reporter destabilization hit call (TYK2)	kinase-Nluc reporter destabilization hit call (ULK3)	kinase-Nluc reporter destabilization hit call (YES1)	kinase-Nluc reporter destabilization hit call (ZAK)	kinase-Nluc reporter destabilization hit call (ZAP70)	number of time points (ABL1)	number of time points (AKT1)
CC(c1ccc(-c2cnc3c(-c4ccc(S(N)(=O)=O)c5ccccc45)cnn3c2)cc1)N1CCCC1 (stereo not given) (2.5 µM)	inactive: 0	inactive: 0	inactive: 0	inactive: 0	inactive: 0	inactive: 0	inactive: 0	inactive: 0	inactive: 0	inactive: 0	inactive: 0	inactive: 0	inactive: 0	inactive: 0	inactive: 0	inactive: 0	inactive: 0	inactive: 0	0	0
COc1ccc(Cn2cc(C(=O)N=Nc3c(O)[nH]c4c(C)cccc34)nn2)cc1 [MARK4 inhibitor 1] (10 µM)	inactive: 0	inactive: 0	inactive: 0	inactive: 0	inactive: 0	inactive: 0	inactive: 0	inactive: 0	inactive: 0	inactive: 0	inactive: 0	inactive: 0	inactive: 0	inactive: 0	inactive: 0	inactive: 0	inactive: 0	inactive: 0	0	0
Cc1cc(-c2cc(OC(=O)c3ccccc3)ccc2Cl)cc2nnc(Nc3ccc(OCCN4CCCC4)cc3)nc12 (0.5 µM)	inactive: 0	inactive: 0	inactive: 0	inactive: 0	active: 1	inactive: 0	inactive: 0	inactive: 0	inactive: 0	inactive: 0	inactive: 0	inactive: 0	inactive: 0	inactive: 0	inactive: 0	inactive: 0	inactive: 0	inactive: 0	0	0
Nc1ncnc2c1c(-c1ccc(Oc3ccccc3)cc1)nn2C1CCCNC1 (racemic) (2.5 µM)	inactive: 0	inactive: 0	inactive: 0	inactive: 0	inactive: 0	inactive: 0	inactive: 0	inactive: 0	inactive: 0	inactive: 0	inactive: 0	inactive: 0	inactive: 0	inactive: 0	inactive: 0	inactive: 0	inactive: 0	inactive: 0	0	0
OC(COc1ccc(C(F)(F)F)cc1)CN(Cc1ccccc1)Cc1ccccc1 (stereo not given) (2.5 µM)	inactive: 0	inactive: 0	inactive: 0	inactive: 0	inactive: 0	inactive: 0	inactive: 0	inactive: 0	inactive: 0	inactive: 0	inactive: 0	inactive: 0	inactive: 0	inactive: 0	inactive: 0	inactive: 0	inactive: 0	inactive: 0	0	0
Cc1cc(Nc2nc(N[C@@H](C)c3ccc(F)cc3)c(C#N)cc2F)n[nH]1 (10 µM)	inactive: 0	inactive: 0	inactive: 0	inactive: 0	inactive: 0	inactive: 0	inactive: 0	inactive: 0	inactive: 0	inactive: 0	inactive: 0	inactive: 0	inactive: 0	inactive: 0	inactive: 0	inactive: 0	inactive: 0	inactive: 0	0	0
CC(C)CC1(O)CCN(C(=O)c2ccc(NS(=O)(=O)c3cccc4nccnc34)cc2)CC1 (10 µM)	inactive: 0	inactive: 0	inactive: 0	inactive: 0	inactive: 0	inactive: 0	inactive: 0	inactive: 0	inactive: 0	inactive: 0	inactive: 0	inactive: 0	inactive: 0	inactive: 0	inactive: 0	inactive: 0	inactive: 0	inactive: 0	0	0
CCOc1cc(C(=O)N2CCC(N3CCN(C)CC3)CC2)ccc1Nc1ncc2c(n1)N(C1CCCC1)c1ccccc1C(=O)N2C (10 µM)	inactive: 0	inactive: 0	inactive: 0	inactive: 0	inactive: 0	inactive: 0	inactive: 0	inactive: 0	inactive: 0	inactive: 0	inactive: 0	inactive: 0	inactive: 0	inactive: 0	inactive: 0	inactive: 0	inactive: 0	inactive: 0	0	0
O=C(Nc1ccc2[nH]nc(-c3ccncc3)c2c1)[C@@H]1CCN(CC(=O)N2CCN(c3ccc(-c4ncccn4)cc3)CC2)C1 (2.5 µM)	inactive: 0	inactive: 0	inactive: 0	inactive: 0	inactive: 0	inactive: 0	inactive: 0	inactive: 0	inactive: 0	inactive: 0	inactive: 0	inactive: 0	inactive: 0	inactive: 0	inactive: 0	inactive: 0	inactive: 0	inactive: 0	0	0
O=C(O)CCc1ccc(O)c(O)c1 [Dihydrocaffeic acid] (10 µM)	inactive: 0	inactive: 0	inactive: 0	inactive: 0	inactive: 0	inactive: 0	inactive: 0	inactive: 0	inactive: 0	inactive: 0	inactive: 0	inactive: 0	inactive: 0	inactive: 0	inactive: 0	inactive: 0	inactive: 0	inactive: 0	0	0
O=C1NC(=O)C(=Cc2ccc(-c3ccc(F)cc3)o2)S1 (stereo in doubt) (10 µM)	inactive: 0	inactive: 0	inactive: 0	inactive: 0	inactive: 0	inactive: 0	inactive: 0	inactive: 0	inactive: 0	inactive: 0	inactive: 0	inactive: 0	inactive: 0	inactive: 0	inactive: 0	inactive: 0	inactive: 0	inactive: 0	0	0
Cc1noc(C)c1-c1ccc(-c2cc(C(N)=O)c(NC(N)=O)s2)c(O[C@H]2CCNC2)c1 (10 µM)	inactive: 0	inactive: 0	inactive: 0	inactive: 0	inactive: 0	inactive: 0	inactive: 0	inactive: 0	inactive: 0	inactive: 0	inactive: 0	inactive: 0	inactive: 0	inactive: 0	inactive: 0	inactive: 0	inactive: 0	inactive: 0	0	0
CC(=NNC(=O)c1ccc(C)c(Br)c1)c1ccc(O)cc1O [mTOR inhibitor-1] (2.5 µM)	inactive: 0	inactive: 0	inactive: 0	inactive: 0	inactive: 0	inactive: 0	inactive: 0	inactive: 0	inactive: 0	inactive: 0	inactive: 0	inactive: 0	inactive: 0	inactive: 0	inactive: 0	inactive: 0	inactive: 0	inactive: 0	0	0
Cc1cc([C@H](C)Nc2ccccc2)c2oc(N3CCOCC3)cc(=O)c2c1 (10 µM)	inactive: 0	inactive: 0	inactive: 0	inactive: 0	inactive: 0	inactive: 0	inactive: 0	inactive: 0	inactive: 0	inactive: 0	inactive: 0	inactive: 0	inactive: 0	inactive: 0	inactive: 0	inactive: 0	inactive: 0	inactive: 0	0	0
CNCc1ccccc1-c1csc([C@@H](C)Nc2nc(C)nc3cc(OC)c(OC)cc23)c1 (2.5 µM)	inactive: 0	inactive: 0	inactive: 0	inactive: 0	inactive: 0	inactive: 0	inactive: 0	inactive: 0	inactive: 0	inactive: 0	inactive: 0	inactive: 0	inactive: 0	inactive: 0	inactive: 0	inactive: 0	inactive: 0	inactive: 0	0	0
O=C(Nc1ccc(F)cc1F)[C@H](NC(=S)Nc1cc(C(F)(F)F)cc(C(F)(F)F)c1)c1ccccc1 (2.5 µM)	inactive: 0	inactive: 0	inactive: 0	inactive: 0	inactive: 0	inactive: 0	inactive: 0	inactive: 0	inactive: 0	inactive: 0	inactive: 0	inactive: 0	inactive: 0	inactive: 0	inactive: 0	inactive: 0	inactive: 0	inactive: 0	0	0

An excerpt of these results, in markdown:

| SMILES | kinase-Nluc reporter destabilization hit call (RET) | kinase-Nluc reporter destabilization hit call [1] | kinase-Nluc reporter destabilization hit call (RIOK1) | kinase-Nluc reporter destabilization hit call (RIPK1) | kinase-Nluc reporter destabilization hit call (RIPK2) | kinase-Nluc reporter destabilization hit call (ROR2) | kinase-Nluc reporter destabilization hit call (RPS6KA1) | kinase-Nluc reporter destabilization hit call (SPHK1) | kinase-Nluc reporter destabilization hit call (SRC) | kinase-Nluc reporter destabilization hit call (STK24) | kinase-Nluc reporter destabilization hit call (STK38) | kinase-Nluc reporter destabilization hit call (SYK) | kinase-Nluc reporter destabilization hit call (TEC) | kinase-Nluc reporter destabilization hit call (TYK2) | kinase-Nluc reporter destabilization hit call (ULK3) | kinase-Nluc reporter destabilization hit call (YES1) | kinase-Nluc reporter destabilization hit call (ZAK) | kinase-Nluc reporter destabilization hit call (ZAP70) | number of time points (ABL1) | number of time points (AKT1) |
| --- | --- | --- | --- | --- | --- | --- | --- | --- | --- | --- | --- | --- | --- | --- | --- | --- | --- | --- | --- | --- |
| CCOc1cc(C(=O)N2CCC(N3CCN(C)CC3)CC2)ccc1Nc1ncc2c(n1)N(C1CCCC1)c1ccccc1C(=O)N2C (10 µM) | inactive: 0 | inactive: 0 | inactive: 0 | inactive: 0 | inactive: 0 | inactive: 0 | inactive: 0 | inactive: 0 | inactive: 0 | inactive: 0 | inactive: 0 | inactive: 0 | inactive: 0 | inactive: 0 | inactive: 0 | inactive: 0 | inactive: 0 | inactive: 0 | 0 | 0 |
| O=C(Nc1ccc2[nH]nc(-c3ccncc3)c2c1)[C@@H]1CCN(CC(=O)N2CCN(c3ccc(-c4ncccn4)cc3)CC2)C1 (2.5 µM) | inactive: 0 | inactive: 0 | inactive: 0 | inactive: 0 | inactive: 0 | inactive: 0 | inactive: 0 | inactive: 0 | inactive: 0 | inactive: 0 | inactive: 0 | inactive: 0 | inactive: 0 | inactive: 0 | inactive: 0 | inactive: 0 | inactive: 0 | inactive: 0 | 0 | 0 |
